Results deposited as PubChem BioAssay AID1053208 (Peter MacCallum Cancer Centre, 2014)
Test: 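Genes whose silencing cuts survival of bone tumour cells only with doxorubicin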 (primary screen). Cell system: mouse osteosarcoma cells, early-passage culture from an engineered mouse model of fibroblastic bone tumour. Reagents: siRNA pool against mouse genes, 40 nM. Time to read-out: about 120 h (48 h before drug, then 72 h with drug). Challenge: doxorubicin 100 nM for 72 h, roughly 30-40% inhibitory dose. Read-out: 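Luminescent ATP signal taken as viability with or without 100 nM doxorubicin for 72 h; mean of two wells set against non-targeting siRNA and turned into robust z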. Scale: viability z-score with doxorubicin: higher = more viable cells under doxorubicin; viability z-score without drug: higher = more viable cells with knock-down alone. Hit rule: 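Called active if knock-down leaves viability unchanged without drug (z within -2 to 2) but lowers it with doxorubicin (z at or under -2)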.
Here is an unselected part of about 17,000 deposited reagents. Of all reagents, 788 (4.7%) were called active. 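Calls rest on z-score classes alone; an extra cut-off of viability at most 70% of control was not applied to them.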 Further read-outs or replicates are left out here.

What did the screen give for Adgrf3 (adhesion G protein-coupled receptor F3) [SID152307078]?
combined z-score class: no change with or without drug; viability z-score with doxorubicin: -0.22; viability z-score without drug: -0.34; activity call: inactive

How did the screen score Mkrn3 (makorin, ring finger protein, 3) [SID152275129]?
combined z-score class: no change with or without drug; viability z-score with doxorubicin: -0.34; viability z-score without drug: -1.52; activity call: inactive

For Prkar1b (protein kinase, cAMP dependent regulatory, type I beta) [SID152274403], what was measured?
combined z-score class: no change with or without drug; viability z-score with doxorubicin: 1.12; viability z-score without drug: 0; activity call: inactive

With H2-T22 (histocompatibility 2, T region locus 22) [SID152309393], how do the results read?
combined z-score class: no change with or without drug; viability z-score with doxorubicin: 0; viability z-score without drug: 0.17; activity call: inactive

For H2-T22 (histocompatibility 2, T region locus 22) [SID152321588], what does the deposit list?
combined z-score class: low cell count with doxorubicin only; viability z-score with doxorubicin: -2.47; viability z-score without drug: -0.17; activity call: active

With H2-T22 (histocompatibility 2, T region locus 22) [SID152337579], what does the deposit list?
combined z-score class: no change with or without drug; viability z-score with doxorubicin: 0.34; viability z-score without drug: -0.17; activity call: inactive

What did the screen give for Or5b112 (olfactory receptor family 5 subfamily B member 112) [SID152279003]?
combined z-score class: low cell count with doxorubicin only; viability z-score with doxorubicin: -2.14; viability z-score without drug: -1.01; activity call: active

For Or2d4 (olfactory receptor family 2 subfamily D member 4) [SID152306976], what was measured?
combined z-score class: no change with or without drug; viability z-score with doxorubicin: -0.9; viability z-score without drug: -0.17; activity call: inactive

With Sepsecs [SID152338642], how do the results read?
combined z-score class: no change with or without drug; viability z-score with doxorubicin: -1.57; viability z-score without drug: 1.52; activity call: inactive

Which result is listed for 2900026A02Rik (RIKEN cDNA 2900026A02 gene) [SID152306381]?
combined z-score class: no change with or without drug; viability z-score with doxorubicin: 0.67; viability z-score without drug: 0; activity call: inactive

With Gpc4 (glypican 4) [SID152301012], what was measured?
combined z-score class: no change with or without drug; viability z-score with doxorubicin: 0.67; viability z-score without drug: -0.51; activity call: inactive

What did the screen give for Or52z12 (olfactory receptor family 52 subfamily Z member 12) [SID152299963]?
combined z-score class: no change with or without drug; viability z-score with doxorubicin: -0.45; viability z-score without drug: -1.18; activity call: inactive

Sorted by “viability z-score with doxorubicin” (lowest first): some entries from above.
Sepsecs [SID152338642] → combined z-score class = no change with or without drug; viability z-score with doxorubicin = -1.57; viability z-score without drug = 1.52; activity call = inactive
Or2d4 (olfactory receptor family 2 subfamily D member 4) [SID152306976] → combined z-score class = no change with or without drug; viability z-score with doxorubicin = -0.9; viability z-score without drug = -0.17; activity call = inactive

Next reagents:
With Fpr3 (formyl peptide receptor 3) [SID152304596], how do the results read?
combined z-score class: high cell count without drug only; viability z-score with doxorubicin: 1.35; viability z-score without drug: 2.53; activity call: inactive

For Fpr3 (formyl peptide receptor 3) [SID152328928], what does the deposit list?
combined z-score class: no change with or without drug; viability z-score with doxorubicin: -0.79; viability z-score without drug: -0.17; activity call: inactive

With Cavin2 (caveolae associated 2) [SID152276061], how do the results read?
combined z-score class: no change with or without drug; viability z-score with doxorubicin: -1.12; viability z-score without drug: -0.51; activity call: inactive

For Npepps (aminopeptidase puromycin sensitive) [SID152262843], what was measured?
combined z-score class: no change with or without drug; viability z-score with doxorubicin: -0.45; viability z-score without drug: -0.34; activity call: inactive

Which result is listed for Engase (endo-beta-N-acetylglucosaminidase) [SID152309572]?
combined z-score class: low cell count with doxorubicin only; viability z-score with doxorubicin: -2.59; viability z-score without drug: -1.18; activity call: active

For Lrrcc1 (leucine rich repeat and coiled-coil domain containing 1) [SID152324519], how do the results read?
combined z-score class: low cell count with doxorubicin only; viability z-score with doxorubicin: -4.05; viability z-score without drug: -1.52; activity call: active

What is on record for 4930412C18Rik (RIKEN cDNA 4930412C18 gene) [SID152301698]?
combined z-score class: no change with or without drug; viability z-score with doxorubicin: -1.12; viability z-score without drug: 1.18; activity call: inactive

For Dclre1c (DNA cross-link repair 1C) [SID152315492], what does the deposit list?
combined z-score class: no change with or without drug; viability z-score with doxorubicin: 0.34; viability z-score without drug: 0.34; activity call: inactive

For Pik3c2g [SID152267714], what does the deposit list?
combined z-score class: no change with or without drug; viability z-score with doxorubicin: -0.67; viability z-score without drug: -1.18; activity call: inactive

Which result is listed for Pik3c3 (phosphatidylinositol 3-kinase catalytic subunit type 3) [SID152323699]?
combined z-score class: no change with or without drug; viability z-score with doxorubicin: -1.12; viability z-score without drug: -0.84; activity call: inactive

With Polr3e (polymerase (RNA) III (DNA directed) polypeptide E) [SID152264847], how do the results read?
combined z-score class: low cell count without drug only; viability z-score with doxorubicin: -1.8; viability z-score without drug: -2.7; activity call: inactive

For Or10al7 (olfactory receptor family 10 subfamily AL member 7) [SID152275944], how do the results read?
combined z-score class: no change with or without drug; viability z-score with doxorubicin: -1.46; viability z-score without drug: -0.84; activity call: inactive

What is on record for Pgm2 (phosphoglucomutase 2) [SID152302104]?
combined z-score class: no change with or without drug; viability z-score with doxorubicin: -1.35; viability z-score without drug: -0.34; activity call: inactive

For Defb7 (defensin beta 7) [SID152291733], how do the results read?
combined z-score class: no change with or without drug; viability z-score with doxorubicin: -0.22; viability z-score without drug: -0.51; activity call: inactive

For Mplkip (M-phase specific PLK1 intereacting protein) [SID152339167], how do the results read?
combined z-score class: no change with or without drug; viability z-score with doxorubicin: 1.01; viability z-score without drug: 1.18; activity call: inactive

For Defa-rs10 (defensin, alpha, related sequence 10) [SID152335237], how do the results read?
combined z-score class: no change with or without drug; viability z-score with doxorubicin: -0.79; viability z-score without drug: -0.67; activity call: inactive
